The text below walks through data of US20040214755 (published 2004).

A short description of the data set: general procedure: Fmoc solid-phase peptide synthesis; 2-chlorotrityl chloride (Cl-TrtCl) polystyrene resin; HATU/DIEA; DIPCDI/HOBt; DIPCDI/DMAP for ester bonds; PyBOP/DIEA for cyclisation. The conditions noted are these: for cyclisation yield: cyclisation step; for crude yield / crude HPLC purity: whole synthesis; for crude yield: cleavage yield; for crude HPLC purity: analytical RP-HPLC, UV detection at 220 nm.

Substance “5-MeHex-D-Val-Thr-D-Val-Val-D-Pro-Orn-D-allo-Ile-cyclo(D-allo-Thr-D-allo-Ile-D-Val-Phe-ZDhb-Val)” registered a cyclisation yield (overall in cyclization, deprotection and purification steps, run 1) of 13%; a cyclisation yield (overall in cyclization, deprotection and purification steps, run 2) of 10%. In addition, the crude yield (run 1) turned out to be 83% and the crude yield (run 2) was found to be 78%.
Take “5-MeHex-D-Val-Thr(tBu)-Val-D-Val-D-Pro-Orn(Boc)-D-allo-Ile-D-allo-Thr(Val-Z-Dhb-Phe-H)-D-allo-Ile-D-Val-OH”: for the setting “run 1”, the “crude HPLC purity” value was >70% and the crude yield is 87%. Further, under “run 2”, the “crude HPLC purity” value was >80% and the crude yield amounted to 65%.
Turning to “Kahalalide B [5-MeHex-Tyr-cyclo(D-Ser-Phe-D-Leu-Pro-Thr-Gly)]”, where the note is “on unprotected linear peptide”, the cyclisation yield is 22%.
For the substance “5-MeHex-Tyr-D-Ser(Gly-H)-Phe-D-Leu-Pro-Thr-OH”, the “crude HPLC purity” value is on record as >85% and the crude yield amounted to 89%.
